Results reported in the supplement of paper PMC12595434, “Development of retinoid nuclear receptor pathway antagonists through targeting aldehyde dehydrogenase 1A3” (iScience, 2025).
This is one part of the list. Single values of this set are uncertain.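 Tm was set to 64 °C where no melting was found, and many curves are irregular.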

Sequences of proteins named here, by UniProt entry; tags and fusion partners are left off. A change or cut given only in a name is not applied to a line headed by its entry.
UniProt O94818: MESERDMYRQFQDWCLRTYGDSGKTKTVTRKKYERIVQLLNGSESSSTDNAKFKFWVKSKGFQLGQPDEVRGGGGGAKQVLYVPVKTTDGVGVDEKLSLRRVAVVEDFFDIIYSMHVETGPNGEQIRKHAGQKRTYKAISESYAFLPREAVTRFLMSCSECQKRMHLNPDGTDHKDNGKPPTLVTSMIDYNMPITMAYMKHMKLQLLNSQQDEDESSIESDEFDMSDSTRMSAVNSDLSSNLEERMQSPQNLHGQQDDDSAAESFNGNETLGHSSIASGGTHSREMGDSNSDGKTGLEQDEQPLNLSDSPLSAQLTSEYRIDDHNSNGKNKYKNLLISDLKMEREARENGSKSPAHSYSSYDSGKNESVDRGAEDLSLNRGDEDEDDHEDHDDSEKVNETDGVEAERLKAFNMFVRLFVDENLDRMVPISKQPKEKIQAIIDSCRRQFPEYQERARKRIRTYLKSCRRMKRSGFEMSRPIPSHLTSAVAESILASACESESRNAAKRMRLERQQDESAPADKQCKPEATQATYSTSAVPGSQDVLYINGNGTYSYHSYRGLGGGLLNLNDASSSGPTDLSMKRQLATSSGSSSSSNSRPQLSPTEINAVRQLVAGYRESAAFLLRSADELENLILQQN
UniProt O94868: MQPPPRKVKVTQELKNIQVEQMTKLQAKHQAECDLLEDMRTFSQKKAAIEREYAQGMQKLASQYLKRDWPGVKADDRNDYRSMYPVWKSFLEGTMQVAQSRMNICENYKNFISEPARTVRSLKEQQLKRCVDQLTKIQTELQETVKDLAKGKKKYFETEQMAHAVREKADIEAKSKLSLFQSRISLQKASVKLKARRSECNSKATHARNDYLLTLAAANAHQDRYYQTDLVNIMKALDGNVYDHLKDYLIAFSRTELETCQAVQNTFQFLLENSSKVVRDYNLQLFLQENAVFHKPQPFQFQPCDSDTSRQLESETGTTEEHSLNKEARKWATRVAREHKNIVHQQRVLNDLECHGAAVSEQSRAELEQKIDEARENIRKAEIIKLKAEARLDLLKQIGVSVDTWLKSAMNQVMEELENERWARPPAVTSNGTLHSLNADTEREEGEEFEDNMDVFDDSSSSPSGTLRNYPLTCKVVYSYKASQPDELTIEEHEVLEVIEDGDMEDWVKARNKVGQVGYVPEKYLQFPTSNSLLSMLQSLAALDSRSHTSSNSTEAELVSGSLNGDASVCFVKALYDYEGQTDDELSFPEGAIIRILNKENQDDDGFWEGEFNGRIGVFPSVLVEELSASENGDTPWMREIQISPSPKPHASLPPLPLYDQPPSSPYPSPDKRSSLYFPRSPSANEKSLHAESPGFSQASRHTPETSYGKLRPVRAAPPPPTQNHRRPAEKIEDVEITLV
UniProt O75940: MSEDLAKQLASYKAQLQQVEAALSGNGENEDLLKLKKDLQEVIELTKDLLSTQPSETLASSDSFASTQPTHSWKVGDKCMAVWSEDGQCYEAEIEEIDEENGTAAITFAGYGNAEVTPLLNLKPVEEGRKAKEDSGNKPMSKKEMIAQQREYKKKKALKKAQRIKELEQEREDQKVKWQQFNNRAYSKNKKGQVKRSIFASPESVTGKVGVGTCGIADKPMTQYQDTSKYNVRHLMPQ
UniProt O75947: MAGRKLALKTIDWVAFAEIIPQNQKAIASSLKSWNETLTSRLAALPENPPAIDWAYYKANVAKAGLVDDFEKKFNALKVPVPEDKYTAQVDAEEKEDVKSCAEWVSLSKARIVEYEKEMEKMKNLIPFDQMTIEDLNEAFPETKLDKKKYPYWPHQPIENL
UniProt O94886: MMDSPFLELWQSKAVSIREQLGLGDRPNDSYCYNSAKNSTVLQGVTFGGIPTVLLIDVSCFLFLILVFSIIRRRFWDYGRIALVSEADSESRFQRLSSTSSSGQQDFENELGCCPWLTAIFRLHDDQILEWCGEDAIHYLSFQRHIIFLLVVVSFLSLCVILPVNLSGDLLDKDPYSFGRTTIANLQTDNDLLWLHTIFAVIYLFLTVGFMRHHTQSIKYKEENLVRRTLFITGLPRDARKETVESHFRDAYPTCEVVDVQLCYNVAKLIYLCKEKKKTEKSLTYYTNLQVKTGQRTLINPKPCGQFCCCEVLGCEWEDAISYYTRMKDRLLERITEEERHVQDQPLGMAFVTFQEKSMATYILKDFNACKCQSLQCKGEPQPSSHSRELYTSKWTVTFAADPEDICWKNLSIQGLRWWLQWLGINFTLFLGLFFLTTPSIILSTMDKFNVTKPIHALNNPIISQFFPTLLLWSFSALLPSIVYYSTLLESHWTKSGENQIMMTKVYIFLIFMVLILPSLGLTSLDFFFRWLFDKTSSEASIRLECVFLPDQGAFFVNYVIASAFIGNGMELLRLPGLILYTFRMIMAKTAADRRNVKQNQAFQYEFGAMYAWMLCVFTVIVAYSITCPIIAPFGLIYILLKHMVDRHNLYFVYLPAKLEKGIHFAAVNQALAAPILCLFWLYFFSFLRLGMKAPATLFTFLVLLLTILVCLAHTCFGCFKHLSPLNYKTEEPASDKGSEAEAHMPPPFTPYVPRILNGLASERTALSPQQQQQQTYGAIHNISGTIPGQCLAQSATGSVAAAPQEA
UniProt O95757: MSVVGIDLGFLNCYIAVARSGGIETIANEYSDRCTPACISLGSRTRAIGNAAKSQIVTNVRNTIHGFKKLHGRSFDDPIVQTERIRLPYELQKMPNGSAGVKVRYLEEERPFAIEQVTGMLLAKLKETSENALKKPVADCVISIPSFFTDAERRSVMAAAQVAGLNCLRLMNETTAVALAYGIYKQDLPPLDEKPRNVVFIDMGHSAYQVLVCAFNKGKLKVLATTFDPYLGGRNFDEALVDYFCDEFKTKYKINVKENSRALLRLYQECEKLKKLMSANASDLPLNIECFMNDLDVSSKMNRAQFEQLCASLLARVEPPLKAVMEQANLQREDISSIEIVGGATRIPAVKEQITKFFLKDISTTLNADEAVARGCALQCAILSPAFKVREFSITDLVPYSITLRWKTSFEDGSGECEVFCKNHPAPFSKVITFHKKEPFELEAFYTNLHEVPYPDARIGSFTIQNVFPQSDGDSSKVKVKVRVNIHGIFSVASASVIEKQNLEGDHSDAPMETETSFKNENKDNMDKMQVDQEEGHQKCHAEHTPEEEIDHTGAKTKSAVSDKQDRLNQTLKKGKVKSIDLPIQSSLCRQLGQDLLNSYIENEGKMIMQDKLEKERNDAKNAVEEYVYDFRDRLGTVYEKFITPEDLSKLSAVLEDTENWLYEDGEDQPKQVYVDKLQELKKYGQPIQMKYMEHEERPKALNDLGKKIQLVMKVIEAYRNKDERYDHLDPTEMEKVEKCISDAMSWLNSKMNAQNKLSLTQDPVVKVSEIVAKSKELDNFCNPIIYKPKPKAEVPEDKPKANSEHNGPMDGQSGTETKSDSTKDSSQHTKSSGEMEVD
UniProt O94952: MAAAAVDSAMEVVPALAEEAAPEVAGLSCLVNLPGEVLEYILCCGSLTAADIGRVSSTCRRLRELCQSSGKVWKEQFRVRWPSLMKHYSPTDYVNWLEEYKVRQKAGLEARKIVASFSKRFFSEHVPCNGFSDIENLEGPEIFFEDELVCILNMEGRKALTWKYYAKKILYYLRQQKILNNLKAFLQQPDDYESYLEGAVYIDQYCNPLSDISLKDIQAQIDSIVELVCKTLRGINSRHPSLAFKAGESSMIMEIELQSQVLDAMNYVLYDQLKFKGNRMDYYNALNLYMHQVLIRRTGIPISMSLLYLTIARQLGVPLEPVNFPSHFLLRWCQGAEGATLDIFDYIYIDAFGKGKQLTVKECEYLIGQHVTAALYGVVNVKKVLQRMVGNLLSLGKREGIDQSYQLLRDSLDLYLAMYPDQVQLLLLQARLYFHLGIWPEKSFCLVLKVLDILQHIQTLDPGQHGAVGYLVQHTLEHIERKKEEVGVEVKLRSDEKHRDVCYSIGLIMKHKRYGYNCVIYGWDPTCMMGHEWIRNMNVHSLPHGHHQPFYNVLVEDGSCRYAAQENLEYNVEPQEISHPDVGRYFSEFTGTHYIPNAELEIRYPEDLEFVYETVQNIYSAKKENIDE
UniProt O94817, whole entry: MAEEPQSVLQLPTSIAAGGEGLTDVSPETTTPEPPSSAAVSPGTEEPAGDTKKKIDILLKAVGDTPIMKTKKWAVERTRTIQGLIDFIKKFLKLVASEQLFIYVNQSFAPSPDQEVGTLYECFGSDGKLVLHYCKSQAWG
UniProt O94826, whole entry: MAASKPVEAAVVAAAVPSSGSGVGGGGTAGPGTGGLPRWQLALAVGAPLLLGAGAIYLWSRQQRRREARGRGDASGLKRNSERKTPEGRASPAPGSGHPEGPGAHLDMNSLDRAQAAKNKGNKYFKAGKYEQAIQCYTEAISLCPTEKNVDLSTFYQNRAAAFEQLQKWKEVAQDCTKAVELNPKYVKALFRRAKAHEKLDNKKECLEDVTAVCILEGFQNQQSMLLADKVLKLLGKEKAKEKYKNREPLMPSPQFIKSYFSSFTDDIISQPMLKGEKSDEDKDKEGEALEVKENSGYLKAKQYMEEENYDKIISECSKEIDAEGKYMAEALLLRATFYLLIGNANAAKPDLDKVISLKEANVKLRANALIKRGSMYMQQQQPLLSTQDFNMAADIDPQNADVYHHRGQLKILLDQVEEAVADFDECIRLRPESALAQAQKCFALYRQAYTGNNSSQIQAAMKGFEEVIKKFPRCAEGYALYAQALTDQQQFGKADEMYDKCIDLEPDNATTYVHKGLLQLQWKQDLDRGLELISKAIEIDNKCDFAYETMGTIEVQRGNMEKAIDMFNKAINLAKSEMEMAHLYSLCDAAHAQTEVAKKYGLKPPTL
UniProt O95405: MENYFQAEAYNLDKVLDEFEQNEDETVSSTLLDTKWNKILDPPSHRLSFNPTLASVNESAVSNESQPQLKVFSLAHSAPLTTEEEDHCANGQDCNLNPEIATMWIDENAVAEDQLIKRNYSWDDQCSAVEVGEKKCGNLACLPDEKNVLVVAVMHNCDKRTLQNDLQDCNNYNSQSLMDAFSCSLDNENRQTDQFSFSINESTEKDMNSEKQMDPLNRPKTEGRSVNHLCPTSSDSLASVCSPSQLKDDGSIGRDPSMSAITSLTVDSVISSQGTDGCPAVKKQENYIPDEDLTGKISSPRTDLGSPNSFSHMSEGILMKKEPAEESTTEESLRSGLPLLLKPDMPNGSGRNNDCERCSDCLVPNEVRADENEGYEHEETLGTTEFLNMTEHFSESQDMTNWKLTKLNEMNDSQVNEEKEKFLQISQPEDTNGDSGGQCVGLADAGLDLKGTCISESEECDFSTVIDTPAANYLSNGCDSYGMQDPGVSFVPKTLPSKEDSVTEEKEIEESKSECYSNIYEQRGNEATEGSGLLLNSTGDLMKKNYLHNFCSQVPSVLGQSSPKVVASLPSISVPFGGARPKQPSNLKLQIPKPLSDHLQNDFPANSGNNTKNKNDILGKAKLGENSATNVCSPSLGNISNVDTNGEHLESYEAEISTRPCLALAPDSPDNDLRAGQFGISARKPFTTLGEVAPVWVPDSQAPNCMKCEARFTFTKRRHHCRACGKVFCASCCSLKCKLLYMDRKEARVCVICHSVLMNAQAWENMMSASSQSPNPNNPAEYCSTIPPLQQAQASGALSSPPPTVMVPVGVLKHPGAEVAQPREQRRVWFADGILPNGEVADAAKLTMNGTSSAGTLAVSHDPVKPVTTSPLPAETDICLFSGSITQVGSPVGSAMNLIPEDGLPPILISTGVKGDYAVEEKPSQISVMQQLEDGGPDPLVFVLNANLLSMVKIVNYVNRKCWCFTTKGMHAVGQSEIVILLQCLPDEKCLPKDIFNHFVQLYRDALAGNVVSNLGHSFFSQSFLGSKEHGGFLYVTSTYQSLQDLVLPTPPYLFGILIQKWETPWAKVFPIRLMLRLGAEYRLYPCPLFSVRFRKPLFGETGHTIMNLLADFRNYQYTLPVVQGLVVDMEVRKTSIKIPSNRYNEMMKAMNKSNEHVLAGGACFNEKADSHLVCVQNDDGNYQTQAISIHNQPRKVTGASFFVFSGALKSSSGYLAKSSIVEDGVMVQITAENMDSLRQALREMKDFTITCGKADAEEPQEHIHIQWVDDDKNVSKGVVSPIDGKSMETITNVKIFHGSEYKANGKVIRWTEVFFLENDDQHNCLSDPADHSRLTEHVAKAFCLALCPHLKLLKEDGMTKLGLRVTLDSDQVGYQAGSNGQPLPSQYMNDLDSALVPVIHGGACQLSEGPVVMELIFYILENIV
UniProt P02794, whole entry: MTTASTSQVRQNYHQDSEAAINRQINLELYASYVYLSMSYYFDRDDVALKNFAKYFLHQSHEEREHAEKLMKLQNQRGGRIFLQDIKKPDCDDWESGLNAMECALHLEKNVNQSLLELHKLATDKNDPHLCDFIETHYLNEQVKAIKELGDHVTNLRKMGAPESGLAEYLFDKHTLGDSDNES
UniProt O95139, whole entry: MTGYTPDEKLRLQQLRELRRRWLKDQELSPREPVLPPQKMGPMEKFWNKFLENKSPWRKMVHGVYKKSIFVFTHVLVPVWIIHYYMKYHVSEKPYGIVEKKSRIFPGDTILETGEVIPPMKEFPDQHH

Compound: CCc1cnccc1C(=O)Nc1cc2c(cc1F)NC(=O)CC2
Assay: melting temperature shift (DMSO Tm minus MBE1-treated Tm) in cellular thermal proteome profiling; higher = less thermal stabilization by MBE1 (negative = stabilized by MBE1)
Conditions: A375

Target	melting temperature shift (MBE1 concentration: 100 nM) [°C]	melting temperature shift (MBE1 concentration: 1 uM) [°C]
H6PD (UniProt O95479)	-1.52	-1.33
UniProt O94818	-1.17	
FCHSD2 (UniProt O94868)		0.032
HSPB1 (UniProt P04792)	-1.39	-0.752
SLU7 (UniProt O95391)	0.0542	-0.801
PEX11B (UniProt O96011)		-1.79
CYB5R3 (UniProt P00387)	-1.04	-0.25
UniProt P05106		-1.46
UniProt O95294	0.0305	
TOMM40 (UniProt O96008)		0.871
UniProt P04440		-2.9
SMNDC1 (UniProt O75940)	-4.15	-2.44
EYA4 (UniProt O95677)	-2.44	-1.44
ZBED1 (UniProt O96006)	-1.29	-0.395
UniProt O95644	3.77	
SYF2 (UniProt O95926)	-1.39	
ATP5H (UniProt O75947)	-0.574	-0.366
UniProt O95476	-1.14	0
TMEM63A (UniProt O94886)	-1.55	-0.263
TFRC (UniProt P02786)		-0.523
B3GAT3 (UniProt O94766)	-0.362	0.483
UniProt O95490	2.1	2.3
HSPA4L (UniProt O95757)	-0.293	-0.733
EIF2S1 (UniProt P05198)	-0.416	0.557

Target	melting temperature shift (MBE1 concentration: 100 nM) [°C]	melting temperature shift (MBE1 concentration: 1 uM) [°C]
CSTB (UniProt P04080)	-0.0469	-0.335
PNP (UniProt P00491)		0.2
NDUFA10 (UniProt O95299)	0.605	-0.0611
FYN (UniProt P06241)	-1.77	
EIF4E (UniProt P06730)	-0.825	0.604
UniProt P01011	-0.855	0.403
AP2A2 (UniProt O94973)	-0.391	0.525
UniProt O94854	-0.543	-0.83
FARP2 (UniProt O94887)		-0.275
PGLS (UniProt O95336)	-0.142	-0.425
UniProt O95568	-0.0329	
TGFB1 (UniProt P01137)	0.287	-1.23
MLYCD (UniProt O95822)	-0.879	0.825
KIF4A (UniProt O95239)	-0.237	-0.41
SEC24A (UniProt O95486)	0.299	-0.0122
FBXO21 (UniProt O94952)	0.702	0.348
EML2 (UniProt O95834)	-0.181	0.107
SSB (UniProt P05455)	-0.324	0.232
UniProt O76054	0.0488	0.434
MBD3 (UniProt O95983)	-0.943	-0.128
SMC2 (UniProt O95347)	0.247	-0.134
SGPL1 (UniProt O95470)	-0.0671	-0.104
TNFAIP8 (UniProt O95379)	0.0611	0.873
OXSR1 (UniProt O95747)	-0.0706	-0.179

Target	melting temperature shift (MBE1 concentration: 100 nM) [°C]	melting temperature shift (MBE1 concentration: 1 uM) [°C]
LETM1 (UniProt O95202)	-0.765	0.393
PCNT (UniProt O95613)	0.841	-0.971
UniProt P04921	3.56	-4.8
FLOT1 (UniProt O75955)	-0.922	1.31
UniProt O96017	-0.452	-0.775
ISG15 (UniProt P05161)	0.714	-0.281
SOGA1 (UniProt O94964)	-0.768	-0.641
UniProt O94804	-0.347	0.179
UniProt O94817	0.141	0.165
ACTL6A (UniProt O96019)	-0.845	-0.34
GNAI2 (UniProt P04899)	-0.738	0.201
PAPSS2 (UniProt O95340)	-0.0469	0.55
GLA (UniProt P06280)	-1.94	-3.3
NDUFC2 (UniProt O95298)	-0.592	-0.201
UniProt O95258	-1.87	-0.372
UROD (UniProt P06132)	-1.69	-1.17
TOMM70 (UniProt O94826)	0.36	0.0672
SRP72 (UniProt O76094)	-0.334	-0.16
PARN (UniProt O95453)	0.0988	-0.499
DHFR (UniProt P00374)	-0.147	-0.237
UniProt O94864	-0.768	-0.644
AK1 (UniProt P00568)	-0.0183	-0.403
AGFG2 (UniProt O95081)	-0.301	0.0705
UniProt O75923	-1.92	0.649

Target	melting temperature shift (MBE1 concentration: 100 nM) [°C]	melting temperature shift (MBE1 concentration: 1 uM) [°C]
RPLP0 (UniProt P05388)	-0.531	0.244
UniProt O94875	0.354	1.02
ZFYVE9 (UniProt O95405)	0.525	-0.189
GLCE (UniProt O94923)	-0.651	-0.0201
NDUFB8 (UniProt O95169)	-1.25	-1.79
UniProt O95785	-0.379	0.0939
ARIH2 (UniProt O95376)	0.00611	0.379
UniProt O76075	0.791	0.245
UniProt P00846	-0.226	-0.74
MFN2 (UniProt O95140)	0.739	0
UniProt P00167	-1.25	-0.348
RSL1D1 (UniProt O76021)	-0.396	0.0604
SEC24B (UniProt O95487)	-0.488	-0.443
TK1 (UniProt P04183)	-0.952	2.63
ERLIN2 (UniProt O94905)	-0.495	-0.409
ICAM1 (UniProt P05362)	-0.2	-2.42
UniProt P04233	-1.45	1.42
UniProt P03905	-0.488	0.104
ABHD16A (UniProt O95870)	-3.96	-2.23
POLR1A (UniProt O95602)	-1.24	-0.984
CLPX (UniProt O76031)	0.551	0.36
TRUB2 (UniProt O95900)	-0.32	0.256
STAM2 (UniProt O75886)	0.281	0.0488
ENO1 (UniProt P06733)	-5.2	-2.65

Given with each value named: part of the list above.
UniProt O76075
  melting temperature shift (MBE1 concentration: 100 nM) [°C]: 0.791; melting temperature shift (MBE1 concentration: 1 uM) [°C]: 0.245
ICAM1 (UniProt P05362)
  melting temperature shift (MBE1 concentration: 100 nM) [°C]: -0.2; melting temperature shift (MBE1 concentration: 1 uM) [°C]: -2.42
UniProt P04233
  melting temperature shift (MBE1 concentration: 100 nM) [°C]: -1.45; melting temperature shift (MBE1 concentration: 1 uM) [°C]: 1.42
ABHD16A (UniProt O95870)
  melting temperature shift (MBE1 concentration: 100 nM) [°C]: -3.96; melting temperature shift (MBE1 concentration: 1 uM) [°C]: -2.23

Additional records follow.

Target	melting temperature shift (MBE1 concentration: 100 nM) [°C]	melting temperature shift (MBE1 concentration: 1 uM) [°C]
MOCS3 (UniProt O95396)	0.454	0.2
STBD1 (UniProt O95210)	-0.586	-0.403
UniProt O95070	-0.584	-1.75
ANXA1 (UniProt P04083)	0.0977	0.0244
UniProt O94832	0.488	-0.843
KRAS (UniProt P01116)	-0.679	-0.941
FTH1 (UniProt P02794)	-3.9	1.55
NDUFB6 (UniProt O95139)	1	-1.97
RAF1 (UniProt P04049)	-0.353	0.0941
DNAJC8 (UniProt O75937)	-0.403	0.525
DDHD2 (UniProt O94830)	-0.463	1.77
FGFR1OP (UniProt O95684)	1.48	0.91
BAG4 (UniProt O95429)	-0.698	0.463
MAP4K4 (UniProt O95819)	0.763	0.598
MPDZ (UniProt O75970)	-1.48	-0.136
ECD (UniProt O95905)	0.69	0.0977
BAG2 (UniProt O95816)	0.409	0
KIF20A (UniProt O95235)	-0.397	-0.205
SNX4 (UniProt O95219)	0.568	-0.275
SNUPN (UniProt O95149)	0.299	0.434
ATP5B (UniProt P06576)	-2.83	-2.33
GLRX3 (UniProt O76003)	0.116	-0.611
UniProt P04035	-2.16	0.568
DHRS3 (UniProt O75911)	-0.177	1.21
